Source: patent US20130225508A1, “PEPTIDE CAPABLE OF BINDING TO IMMUNOGLOBULIN” (priority 2010, published 2013)
Not every detail of the peptide structures is certain; ends, links or a residue may be inferred. Non-standard residues stand in square brackets, D forms with d. Residues, ends and D or L forms follow the SMILES beside them.

Key:
[1] = system: Arthus reaction; assay: Type III allergic (Arthus) reaction-induced rat model, dye leakage; assay type: in vivo, Slc:Wistar rats; conditions: mean±SD
Method: Using forty-two 7-week-old male Slc:Wistar rats, examinations were made on test substance VII-2, with each of intraperitoneal administration and intravenous administration into tail vain. Acclimation was carried out by giving normal solid chow CRF-1 for a period of 6 days or longer. On the day prior to administration, the back of each animal was shaved. On the day of administration, a mixed solution of egg-white Ovalbumin (MP Biomedicals) (hereinafter referred to as “OVA”) and Evans blue dye was administered into the tail vein. A solution of the test substance was administered intraperitoneally or into the tail vein 30 minutes or 50 minutes after the administration of the mixed solution of OVA and Evans blue dye, respectively. For intracutaneous administration of a solution of anti-OVA (Nordic immunological Laboratories), the solution was intracutaneously administered in the back of each animal at a dose of 0.1 ml/site 30 minutes or 10 minutes after the administration of the test substance in the case of its intraperitoneal or intravenous administration, respectively, so as to generate a local Arthus reaction. After the reaction was allowed to be generated for 4 hours, the animals were euthanized, the blood was removed thoroughly, and then the dorsal skin was exfoliated. […] The amount of dye leakage was quantified by measuring absorbance for the Evans blue dye with a spectrophotometer and using a calibration curve. […]
Several cuttings were made in the skin strips that had been punched out with a punch. […] The amount of dye leakage was calculated from a calibration curve of known amounts of the dye.
The mean value (mean)±standard deviation (SD) for each of the groups was calculated with respect to body-weight measurements and amounts of dye leakage. For amounts of dye leakage, the value for each of the animals was determined by subtracting the mean of the values obtained for the two sites of PBS administration from the mean of the values obtained for the two sites of administration of the anti-OVA solution. […]

[2] = system: monoclonal antibody cocktail-induced arthritis; assay: Mice monoclonal antibody cocktail-induced arthritis model; assay type: in vivo, Mice (BALB/c Cr Slc); conditions: for difference in the volume ratio relative to the control group: day 8
Method: 1-1 Mice (BALB/c Cr Slc (SPF)) were used to examine arthritis suppressing effects of peptides of the present invention on monoclonal antibody cocktail-induced arthritis. Mice were fed normal chow and allowed to acclimate for 6 days before used in experiments.
Arthritis was caused by intravenous administration of 2 mg/animal of an arthritis-inducing monoclonal antibody cocktail and three days later, intraperitoneal administration of 50 μg/animal of lipopolysaccharide (LPS). Peptides R1 and R9 each were intraperitoneally administered at a dose of 10 mg/kg once a day from the day following the LPS administration (day 4) to day 14. Peptide SP4 and the variant of peptide SP4 composed of the corresponding D-amino acids (except for glycine) each were intraperitoneally administered at a dose of 10 or 100 mg/kg once a day from the day following the LPS administration (day 4) to day 14. […] A control group was given physiological saline at 10 mL/kg once a day from day 4.
To forty 7-week-old mice, the arthritis-inducing monoclonal antibody cocktail was intravenously administered at a dose of 2 mg/animal on day 0, and LPS was intraperitoneally administered at a dose of 50 μg/animal on day 3.
[…] As a control, physiological saline was intraperitoneally administered once a day from day 4, and the volume of administration was 10 ml/kg. […] Needles ([…]; Terumo) and syringes (1.0-ml capacity; Terumo) were used for administration.
Observation of clinical score was performed on even days from day 0 to day 14 as follows. The total score for the extremities was set to a maximum of 12. Visual observation of swelling of the legs was performed.
0: normal joint 1: slight inflammation and redness 2: serious erythema and swelling over the whole limb and preventing the use of the limb 3: deformation of the limb or joint accompanied by ankylosis, joint stiffness, loss of function
Results of examinations are expressed by mean value±standard error and were analyzed using EXSAS (Version 7.1.6, Arm Systex Co., Ltd.). Clinical scores were subjected to Wilcoxon's test. Quantitative data, such as body weights and leg volumes, were subjected to Bartlett's test, followed by Dunnett's multiple comparison test if the variance was uniform or by Steel's multiple comparison test if the variance was not uniform. The level of significance was set at 5% on both sides.

[3] = system: synovial cells derived from a rheumatoid arthritis patient co-cultured with B cells; assay: IgG production by co-culturing of B cells with synovial cells (ELISA); assay type: cell-based, human; conditions: 10 μg/ml; 5 days of co-culturing
[4] = day 6, 10 mg/kg intraperitoneal once a day from day 4
[5] = day 6, 100 mg/kg intraperitoneal once a day from day 4
[6] = day 14, 10 mg/kg intraperitoneal once a day from day 4
[7] = day 14, 100 mg/kg intraperitoneal once a day from day 4

Q: `CC(C)C[C@@H](NC(=O)CNC(=O)[C@H]1CCCN1)C(=O)N[C@H](CCC(=O)O)C(=O)N[C@H](CCCCN)C(=O)N[C@H](Cc1ccccc1)C(=O)O` [Test substance VII-2, dPGdLdEdKdF] (H-[dP]G[dL][dE][dK][dF]-OH; N-terminus and C-terminus assumed) was tested. Which “amount of dye leakage (Evans blue)” value ([1]; 10 mg/kg intraperitoneal) did it give?
A: Its value is 8.705±1.116 μg/animal.

Q: And the “amount of dye leakage (Evans blue)” value ([1]; 100 mg/kg intraperitoneal)?
A: The value was 6.991±0.918 μg/animal.

Q: What about the “amount of dye leakage (Evans blue)” value ([1]; 100 mg/kg intravenous into tail vein) of the same compound?
A: The value was 8.308±2.050 μg/animal.

Q: And the “arthritis suppressing effect compared with methotrexate” value ([2]; 10 and 100 mg/kg intraperitoneal, methotrexate 0.15 mg/kg)?
A: The value was “greater effect of suppressing arthritis”.

Q: What about the hind-limb volume ([2]; day 0, 10 mg/kg intraperitoneal group) of the same compound?
A: Its hind-limb volume is 0.211 cm^3.

Q: What about the hind-limb volume ([2]; day 0, 100 mg/kg intraperitoneal group) of the same compound?
A: Its hind-limb volume is 0.223 cm^3.

Q: And the hind-limb volume [2, 4]?
A: The hind-limb volume was 0.363 cm^3.

Q: And the “increasing rate of hind-limb volume (volume on day 0 = 100%)” value (“increasing rate … (volume on day 0 = 100%)” below) [2, 4]?
A: Its value is 172.0%.

Q: And the hind-limb volume [2, 5]?
A: The hind-limb volume was 0.373 cm^3.

Q: What about the “increasing rate … (volume on day 0 = 100%)” value [2, 5] of the same compound?
A: The value was 167.4%.

Q: What about the hind-limb volume ([2]; day 8 (highest value), 10 mg/kg intraperitoneal once a day from day 4) of the same compound?
A: The hind-limb volume was 0.429 cm^3.

Q: What about the hind-limb volume ([2]; day 8 (highest value), 100 mg/kg intraperitoneal once a day from day 4) of the same compound?
A: Its hind-limb volume is 0.420 cm^3.

Q: And the “increasing rate … (volume on day 0 = 100%)” value ([2]; day 8 (highest), 10 mg/kg intraperitoneal once a day from day 4)?
A: The value was 204.0%.

Q: What about the “increasing rate … (volume on day 0 = 100%)” value ([2]; day 8 (highest), 100 mg/kg intraperitoneal once a day from day 4) of the same compound?
A: Its value is 188.5%.

Q: And the “difference in the volume ratio relative to the control group” value ([2]; 10 mg/kg intraperitoneal)?
A: Its value is −13.8%.

Q: What about the “difference in the volume ratio relative to the control group” value ([2]; 100 mg/kg intraperitoneal) of the same compound?
A: Its value is −29.3%.

Q: And the clinical score ([2]; day 10, 10 mg/kg intraperitoneal once a day from day 4)?
A: The clinical score was 5.0±0.8.

Q: And the clinical score ([2]; day 10, 100 mg/kg intraperitoneal once a day from day 4)?
A: Its clinical score is 5.8±0.5.

Q: What about the clinical score ([2]; day 12, 10 mg/kg intraperitoneal once a day from day 4) of the same compound?
A: Its clinical score is 5.8±0.9.

Q: And the clinical score ([2]; day 12, 100 mg/kg intraperitoneal once a day from day 4)?
A: Its clinical score is 6.8±0.7.

Q: What about the clinical score [2, 6] of the same compound?
A: The clinical score was 6.0±1.0.

Q: What about the hind-limb volume [2, 6] of the same compound?
A: Its hind-limb volume is 0.340 cm^3.

Q: And the “increasing rate … (volume on day 0 = 100%)” value [2, 6]?
A: Its value is 161.8%.

Q: What about the clinical score [2, 7] of the same compound?
A: Its clinical score is 7.2±0.8.

Q: And the hind-limb volume [2, 7]?
A: Its hind-limb volume is 0.356 cm^3.

Q: And the “increasing rate … (volume on day 0 = 100%)” value [2, 7]?
A: The value was 159.6%.

Q: What about the “production of IgG relative to the control” value [3] of the same compound?
A: Its value is “about three fourths”.
